These results are taken from paper PMC5940361, “Human LINE-1 retrotransposition requires a metastable coiled coil and a positively charged N-terminus in L1ORF1p” (eLife, 2018).

The chains behind the UniProt entries cited, without tags or fusion partners. Where a name states a change or a piece, a line headed by the entry shows the natural chain unless it says otherwise. A line that says so, or that is headed by a name, gives the form on record, which may keep a tag or linker. Residues count along the entry.
hL1ORF1p-NTR^H6 (N-terminal region of human L1ORF1p, M1-N51-HHHHHH) (Q9UN81, residues 1-51): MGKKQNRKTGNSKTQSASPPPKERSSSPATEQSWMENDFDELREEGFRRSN
hL1ORF1p-ΔNTR (human L1ORF1p without the NTR, GPHMS53-M338) (Q9UN81, form named): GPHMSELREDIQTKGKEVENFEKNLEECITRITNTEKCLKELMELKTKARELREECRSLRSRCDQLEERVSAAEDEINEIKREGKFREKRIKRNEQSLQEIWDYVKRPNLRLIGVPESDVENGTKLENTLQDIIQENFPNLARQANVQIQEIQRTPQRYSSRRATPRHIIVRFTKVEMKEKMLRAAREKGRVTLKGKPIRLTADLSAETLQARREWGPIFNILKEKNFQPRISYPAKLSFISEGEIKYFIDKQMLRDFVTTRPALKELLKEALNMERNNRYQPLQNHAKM
hL1ORF1p(DD)-NTR^H6 (NTR with phospho-mimicking S18D/S27D) (Q9UN81, form named): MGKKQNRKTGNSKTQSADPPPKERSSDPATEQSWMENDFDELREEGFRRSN

These are yes or no findings as the source states them, for the method shown.

Test [1] concerns the target hL1ORF1p-ΔNTR (human L1ORF1p without the NTR, GPHMS53-M338) (human) (UniProt Q9UN81). Put plainly: SEC; NTR-binding assay: NTR peptide mixed 'in trans' with the hL1ORF1p-ΔNTR trimer, Superdex 200, gel filtration buffer; fractions on SDS PAGE; both purified. Background: SEC sorts molecules by how far they enter the pores of the column.
In test [2] the target is hL1ORF1p-NTR^H6 (N-terminal region of human L1ORF1p, M1-N51-HHHHHH) (human) (UniProt Q9UN81). As to the kind of experiment: SEC-MALS; Superdex 200 (10/300 GL), gel filtration buffer (10 mM HEPES pH 7.5, 300 mM NaCl, 1 mM DTT); both purified.
Test [3] addresses hL1ORF1p(DD)-NTR^H6 (NTR with phospho-mimicking S18D/S27D) (human) (UniProt Q9UN81). Described as above.

As for “hL1ORF1p-NTR^H6 (N-terminal region of human L1ORF1p, M1-N51-HHHHHH) (from UniProt Q9UN81 1-51) (domain or fragment)”, the binding result in test [1] and in test [2] was “no binding” each time.
Regarding “hL1ORF1p(DD)-NTR^H6 (NTR with phospho-mimicking S18D/S27D) (from UniProt Q9UN81 1-51) (domain or fragment)”, the binding entry in test [1] and in test [3] was “no binding” each time.
